The values that follow come from PMC6181423.

The test concerns the target T1, Tem1 (S. cerevisiae) (UniProt P38987).
T1 sequence: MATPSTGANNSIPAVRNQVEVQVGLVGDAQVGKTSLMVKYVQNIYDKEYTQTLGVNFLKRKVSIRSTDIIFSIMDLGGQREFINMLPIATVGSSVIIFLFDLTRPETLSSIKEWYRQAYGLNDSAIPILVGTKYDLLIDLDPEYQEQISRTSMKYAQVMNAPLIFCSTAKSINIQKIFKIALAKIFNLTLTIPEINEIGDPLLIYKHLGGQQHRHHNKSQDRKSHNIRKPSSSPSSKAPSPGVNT
In words: co-IP; whole cell extracts of YL1C strains grown in YPD to OD600 1.0; dynabeads protein G with antibody; IP lysis buffer 50 mM HEPES-KOH pH 7.5, 140 mM NaCl, 1 mM EDTA, 1% Triton X-100; for Cdc15/Tem1 in YL1C, YL1C Δamn1 and with overexpressed Amn1^368D or Amn1^368V.

These are yes or no findings as the source states them, for the method shown. In cells and extracts the contact can be indirect. Some results given as binding are weak or reduced against the parent protein; the word gives no strength.

B1: Cdc15 (protein, UniProt P27636 1-974)
chain: MNSMADTDRVNLTPIQRASEKSVQYHLKQVIGRGSYGVVYKAINKHTDQVVAIKEVVYENDEELNDIMAEISLLKNLNHNNIVKYHGFIRKSYELYILLEYCANGSLRRLISRSSTGLSENESKTYVTQTLLGLKYLHGEGVIHRDIKAANILLSADNTVKLADFGVSTIVNSSALTLAGTLNWMAPEILGNRGASTLSDIWSLGATVVEMLTKNPPYHNLTDANIYYAVENDTYYPPSSFSEPLKDFLSKCFVKNMYKRPTADQLLKHVWINSTENVKVDKLNKFKEDFTDADYHWDADFQEEKLNISPSKFSLAAAPAAWAENNQELDLMPPTESQLLSQLKSSSKPLTDLHVLFSVCSLENIADTIIECLSRTTVDKRLITAFGSIFVYDTQHNHSRLRLKFIAMGGIPLIIKFEHLAKEFVIDYPQTLIECGIMYPPNFASLKTPKYILELVYRFYDLTSTAFWCRWCFKHLDISLLLNNIHERRAQSILLKLSSYAPWSFEKILPSLIDSKLKKKILISPQITYVVFKSINYMITTNDDKIHKSAIPSSSSLPLSSSPTRNSPVNSVQSPSRSPVHSLMATRPSSPMRHKSISNFPHLTISSKSRLLIELPEGFFTWLTSFFVDMAQIKDLSVLKYFTKLCYLTVHINSTFLNDLLDNDAFFAFIRNIDTIIPFIDDAKTAAFIWKQITAICVEMSLDMDQMSASLFSTAMNFIRKKNNTSISGLEIILNCLHFTLRNVNDDVAPTVGSSESHSVFLIKVNNDAAIELPIDQLVDLFYALNDDDVNLSKLISIFTKICSLPGFENLTINIIFHPNFYEKIVSFFDTYFNSLLIQIDLLKFIKLIFSKSLLKLYDYTGQPDPIKQTEPNRRNKATVFKLRAILVQITEFLNNNWNKDVPKRNSNQVGGDSVLICQLCEDIRSLSKKGSLQKVSSVTAAIGSSPTKDERSNLRSSKDKSDGFSVPITTFQT
B1: the binding result was “binds”.
